The record followed here is PubChem BioAssay AID330 (DTP/NCI, 2004).

In this assay the test system is P388 leukemia ip, CD2F1 mice, survival T/C. The assay is described as follows: NCI In Vivo Anticancer Drug Screen. Data for tumor model P388 Leukemia (intraperitoneal) in CD2F1 (CDF1) mice. Conditions: T/C endpoint: median survival time, higher T/C = longer survival.
[1] abbreviates: dose: 200.0 mg/kg/injection, schedule: Q01DX005 (ip), vehicle: Klucel (hydroxypropylcellulose) (HPC).
Where [2] appears, read: dose: 240.0 mg/kg/injection, schedule: Q01DX005 (ip), vehicle: saline with Tween-80.
Where [3] appears, read: dose: 100.0 mg/kg/injection, schedule: Q01DX009 (ip), vehicle: saline.
[4] abbreviates: dose: 200.0 mg/kg/injection, schedule: Q01DX009 (ip), vehicle: saline.
Setting [5] is: dose: 50.0 mg/kg/injection, schedule: Q01DX001 (ip), vehicle: Klucel (hydroxypropylcellulose) (HPC).
Setting [6] is: dose: 200.0 mg/kg/injection, schedule: Q01DX009 (ip), vehicle: Klucel (hydroxypropylcellulose) (HPC).
[7] abbreviates: dose: 200.0 mg/kg/injection, schedule: Q01DX005 (ip), vehicle: saline.
Where [8] appears, read: dose: 100.0 mg/kg/injection, schedule: Q01DX009 (ip), vehicle: saline with Tween-80.
[9] abbreviates: dose: 50.0 mg/kg/injection, schedule: Q01DX009 (ip), vehicle: saline with Tween-80.

The list shows only some results of the screen, not a fair sample: it is rich in T/C values a quarter to a half above the control, in often repeated tests (any T/C) and in doses without a T/C. Other doses and runs of a compound stand elsewhere. T/C gives the treated animals as a percentage of the vehicle group. Some doses have a count of surviving animals in place of a T/C: the source holds a T/C of zero for them, seemingly a mark for toxic or unscored doses. Some doses without a T/C left all or most animals alive at the check, yet need not have been tolerated: survival well below the control is almost never listed, so the zero probably covers shortened survival too. Survivors were counted at the toxicity check, usually on the fifth day, unless a day is given; later deaths do not show. Schedule codes are those of the source, read here as Q, the interval in days (D) or hours (H), X, the number of doses. Some molecules as drawn cover several salts, stereoisomers or complexes of the source; a dose is that of the sample tested. For survival time, the PubChem record calls one and a half times the control and up active, and a quarter to a half above the control has no call in these data; cut-offs in other NCI protocols can differ. Some T/C values are followed by the survivors on the day toxicity was checked, most often the fifth; without a count, all were alive then. Some entries were tested several times; the results are listed from low to high. Signs of the kind (2×) count equal records among those shown.

In the case of `CC(C)(C)c1cc(C(C)(C)C)c(=O)oc(=O)c1`, under setting [1], the survivor count is on record as 4 of 6.
With `O=[As]O`, the T/C was 127 % of control (dose: 4.0 mg/kg/injection, schedule: Q01DX010 (ip), vehicle: saline with Tween-80) and 136 % of control (dose: 8.0 mg/kg/injection, schedule: Q01DX010 (ip), vehicle: saline with Tween-80).
In the case of `N#Cc1ccc(OC(=O)Nc2c(Cl)cc(Cl)cc2Cl)cc1`, the survivor count under setting [2] is listed as 6 of 6.
Consider `[Cl][Pd]([Cl])([Cl])[Cl]`, for which the survivor count is recorded as 4 of 6 under setting [3] and 4 of 6 under setting [4].
As for `NC(Cc1cc(I)c(O)c(I)c1)C(=O)O` (stereo not drawn), the survivor count (dose: 400.0 mg/kg/injection, schedule: Q01DX009 (ip), vehicle: saline with Tween-80) is on record as 6 of 6.
For `Cc1cc(Cl)c2ccccc2c1N`, the T/C (dose: 100.0 mg/kg/injection, schedule: Q01DX009 (ip), vehicle: other) is 125 % of control.
Regarding `CCN=C(CC(=O)C12CC3CC(CC(C3)C1)C2)N(CC)CC`, the survivor count reads like this: under setting [3], 3 of 6; under setting [4], 0 of 6.
On to `O=NN(CCCl)C(=O)Oc1cc(Cl)c(Cl)cc1Cl`, for which the T/C by setting is: (dose: 12.5 mg/kg/injection, schedule: Q01DX001 (ip), vehicle: Klucel (hydroxypropylcellulose) (HPC)) 133 [5 of 6 alive] and 144 % of control; (dose: 25.0 mg/kg/injection, schedule: Q01DX001 (ip), vehicle: Klucel (hydroxypropylcellulose) (HPC)) 137 % of control; under setting [5], 172, 198 [5 of 6 alive], 250 % of control. Moreover, the survivor count is listed as 4 of 6 under setting [5]; 0 of 6 (dose: 75.0 mg/kg/injection, schedule: Q01DX001 (ip), vehicle: Klucel (hydroxypropylcellulose) (HPC)); 2 of 6 (dose: 75.0 mg/kg/injection, schedule: Q01DX005 (ip), vehicle: Klucel (hydroxypropylcellulose) (HPC)).
Take `CC(C)NCCCNC(=S)C(=S)NCCCNC(C)C`: the survivor count under setting [1] is 0 of 6.
Consider `c1ccc(-c2c3ccccc3c[n+]3ccccc23)cc1`, for which the survivor count (dose: 12.5 mg/kg/injection, schedule: Q01DX009 (ip), vehicle: Klucel (hydroxypropylcellulose) (HPC)) was 0 of 6 and the survivor count (dose: 25.0 mg/kg/injection, schedule: Q01DX009 (ip), vehicle: Klucel (hydroxypropylcellulose) (HPC)) is 0 of 6.
Regarding `C/C(=N\Nc1cc(C)nc2ccc(C)cc12)c1cn(C)n(-c2ccccc2)c1=O`, under setting [6], the survivor count is 6 of 6.
`CN(C)CCCN1c2ccccc2Oc2ccc(Cl)cc21`: the survivor count under setting [7] is reported as 1 of 6.
With `O=C1SC/C(=N\N=c2/scc(-c3ccccc3)n2-c2ccc(Br)cc2)N1Cc1ccccc1`, the survivor count (dose: 400.0 mg/kg/injection, schedule: Q04DX002 (ip), vehicle: Klucel (hydroxypropylcellulose) (HPC)) is 6 of 6.
Consider `Nc1ccc2cc(S(=O)(=O)O)cc(O)c2c1N=Nc1ccc(NC(=O)c2ccc(C(=O)Nc3ccc(N=Nc4c(N)ccc5cc(S(=O)(=O)O)cc(O)c45)c(S(=O)(=O)O)c3)cc2)cc1S(=O)(=O)O`, for which the survivor count runs as follows: (dose: 100.0 mg/kg/injection, schedule: Q01DX005 (ip), vehicle: saline with Tween-80) 6 of 6; (dose: 200.0 mg/kg/injection, schedule: Q01DX005 (ip), vehicle: saline with Tween-80) 3 of 6.
Regarding `CN(C)c1ccc2c3c(c(=O)oc2c1)CCC3`, the survivor count under setting [8] is 6 of 6.
In the case of `c1ccc2c(c1)N=Nc1ccccc1OCCOCCOCCO2`, the survivor count (dose: 200.0 mg/kg/injection, schedule: Q01DX001 (ip), vehicle: saline with Tween-80) is 0 of 6 and the survivor count (dose: 400.0 mg/kg/injection, schedule: Q01DX001 (ip), vehicle: saline with Tween-80) was 0 of 6.
For the compound `Cc1csc2ncnc(N)c12`, the survivor count (dose: 400.0 mg/kg/injection, schedule: Q04DX003 (ip), vehicle: Klucel (hydroxypropylcellulose) (HPC)) is listed as 3 of 6.
`C/C(=N\N)c1nc2ccccc2[nH]1`: the survivor count reads like this: (dose: 120.0 mg/kg/injection, schedule: Q01DX005 (ip), vehicle: Klucel (hydroxypropylcellulose) (HPC)) 0 of 6; (dose: 240.0 mg/kg/injection, schedule: Q01DX005 (ip), vehicle: Klucel (hydroxypropylcellulose) (HPC)) 0 of 6.
As for `COC(=O)C(=O)c1c(C(=O)OC)nc2nnc(N)n2c1-c1cccc([N+](=O)[O-])c1`, the survivor count is, setting by setting: (dose: 60.0 mg/kg/injection, schedule: Q01DX005 (ip), vehicle: saline with Tween-80) 6 of 6; under setting [2], 6 of 6.
Consider `CC1(C)C2CC=C(CCOC(=S)S)C1C2.[Ni]` (stereo not drawn), for which the survivor count under setting [9] is listed as 6 of 6 and the survivor count under setting [8] is 6 of 6.
With `Nc1nc(N)c2cc(CNc3ccc(C(=O)NC(C(=O)O)C(=O)O)cc3)ccc2n1`, the survivor count by setting is: (dose: 0.4 mg/kg/injection, schedule: Q01DX009 (ip), vehicle: saline) 6 of 6; (dose: 0.8 mg/kg/injection, schedule: Q01DX009 (ip), vehicle: saline) 4 of 6; (dose: 1.6 mg/kg/injection, schedule: Q01DX009 (ip), vehicle: saline) 2 of 6. The T/C reads like this: (dose: 66.0 micrograms/kg/injection, schedule: Q01DX009 (ip), vehicle: saline sonified) 131 % of control; (dose: 150.0 micrograms/kg/injection, schedule: Q01DX009 (ip), vehicle: saline sonified) 127 % of control.
As to `CC[n+]1c(C)sc2ccccc21`, the survivor count (dose: 100.0 mg/kg/injection, schedule: Q01DX005 (ip), vehicle: saline) was 0 of 5.
Take `O=C(C=C(C(F)(F)F)C(F)(F)F)c1ccccc1[N+](=O)[O-]`: the survivor count (dose: 12.5 mg/kg/injection, schedule: Q04DX003 (ip), vehicle: other) is given as 6 of 6.
With `C=C(C)C(=NC(C)(C)C)Nc1ccccc1`, the T/C was 134 % of control (dose: 20.0 mg/kg/injection, schedule: Q01DX005 (ip), vehicle: saline); 147 % of control (dose: 40.0 mg/kg/injection, schedule: Q01DX005 (ip), vehicle: saline); 135 % of control (dose: 50.0 mg/kg/injection, schedule: Q01DX005 (ip), vehicle: saline); 125 % of control (2×) under setting [9]; 142 % of control (dose: 80.0 mg/kg/injection, schedule: Q01DX005 (ip), vehicle: saline); 134 and 148 % of control under setting [8]. The survivor count (dose: 25.0 mg/kg/injection, schedule: Q01DX009 (ip), vehicle: saline with Tween-80) was 6 of 6; the survivor count under setting [7] was 0 of 6; the survivor count (dose: 200.0 mg/kg/injection, schedule: Q01DX009 (ip), vehicle: saline with Tween-80) is recorded as 3 of 6.
As to `CC(=O)Oc1ccc(OC(C)=O)c2c(OC(C)=O)c(C(CC=C(C)C)OC(C)=O)cc(OC(C)=O)c12` (stereo not drawn), the survivor count (dose: 50.0 mg/kg/injection, schedule: Q04DX002 (ip), vehicle: saline with Tween-80) is 5 of 6.
In the case of `CS(C)=Nc1ccc(Cl)cc1`, the survivor count reads like this: (dose: 200.0 mg/kg/injection, schedule: Q01DX001 (ip), vehicle: saline) 3 of 6; (dose: 400.0 mg/kg/injection, schedule: Q01DX001 (ip), vehicle: saline) 0 of 6.
Turning to `CCOc1ccc(NC(=O)c2c(N)n(C)c(=O)n(C)c2=O)cc1`, under setting [6], the survivor count is recorded as 2 of 6.
In the case of `COc1ccccc1N=Nc1cc(S(=O)(=O)O)c2ccccc2c1O`, under “dose: 400.0 mg/kg/injection, schedule: Q01DX009 (ip), vehicle: saline”, the survivor count is on record as 0 of 6.
In the case of `OCC1OC(n2nc(Cl)c3ccccc32)C(O)C1O` (stereo not drawn), for the setting “dose: 32.0 mg/kg/injection, schedule: Q01DX002 (ip), vehicle: saline with Tween-80”, the T/C is 129 % of control. The survivor count under setting [9] was 6 of 6.
As to `CCC(=O)Nc1ccc(N)cc1`, the survivor count (dose: 400.0 mg/kg/injection, schedule: Q04DX003 (ip), vehicle: saline) was 2 of 6.
